No constants are given. Whether binding was seen depends on the method and setting. In cells and extracts the contact can be indirect. Some binding calls cover weakened binding; strength is not graded here.
What was measured:
[1] = target: ASIC2b fused at its C-terminus to a Venus fragment for BiFC (mouse) (UniProt Q925H0); assay: split reporter; Venus-based BiFC (VN173 and VC155) in HEK293T cells co-transfected with the two fusions; fixed after 24 h, confocal microscopy
[2] = target: ASIC2a fused at its C-terminus to a Venus fragment for BiFC (mouse) (UniProt Q925H0); assay: as above
[3] = target: FLAG-tagged ASIC2b (acid-sensing ion channel 2b) (mouse) (UniProt Q925H0); assay: co-IP; HEK293T cells co-expressing HA-ASIC2a and FLAG-ASIC2b; lysis in 20 mM HEPES pH 7.5, 150 mM NaCl, 1% NP-40, 0.1% SDS, 1 mM NaF; immunoprecipitated with anti-FLAG overnight at 4 °C, protein A/G PLUS-agarose, blotted with anti-HA
[4] = target: FLAG-tagged ASIC2b (acid-sensing ion channel 2b) (mouse) (UniProt Q925H0); assay: proximity ligation; Duolink PLA on fixed HEK293T cells co-expressing HA-ASIC2a and FLAG-ASIC2b; primary anti-HA (mouse) and anti-FLAG (rabbit) antibodies; signal when the distance is <40 nm
[5] = target: GFP-tagged 2b-TP (ASIC2b with the TM1 and the proximal post-TM1 domain replaced by those of ASIC2a) (mouse) (UniProt Q925H0); assay: co-IP; HEK293T cells co-transfected with a GFP-tagged and an HA-tagged ASIC2 protein; lysis in 20 mM HEPES pH 7.5, 150 mM NaCl, 1% NP-40, 0.1% SDS, 1 mM NaF; immunoprecipitated with anti-GFP, blotted with anti-HA
[6] = target: GFP-tagged ASIC2a (mouse) (UniProt Q925H0); assay: as above
[7] = target: GFP-tagged Ch3 (ASIC2b with residues 1-129 replaced by 1-85 of ASIC2a) (mouse) (UniProt Q925H0); assay: as above

The chains behind the UniProt entries cited, without tags or fusion partners. Where a name states a change or a piece, a line headed by the entry shows the natural chain unless it says otherwise. A line that says so, or that is headed by a name, gives the form on record, which may keep a tag or linker.
UniProt Q925H0: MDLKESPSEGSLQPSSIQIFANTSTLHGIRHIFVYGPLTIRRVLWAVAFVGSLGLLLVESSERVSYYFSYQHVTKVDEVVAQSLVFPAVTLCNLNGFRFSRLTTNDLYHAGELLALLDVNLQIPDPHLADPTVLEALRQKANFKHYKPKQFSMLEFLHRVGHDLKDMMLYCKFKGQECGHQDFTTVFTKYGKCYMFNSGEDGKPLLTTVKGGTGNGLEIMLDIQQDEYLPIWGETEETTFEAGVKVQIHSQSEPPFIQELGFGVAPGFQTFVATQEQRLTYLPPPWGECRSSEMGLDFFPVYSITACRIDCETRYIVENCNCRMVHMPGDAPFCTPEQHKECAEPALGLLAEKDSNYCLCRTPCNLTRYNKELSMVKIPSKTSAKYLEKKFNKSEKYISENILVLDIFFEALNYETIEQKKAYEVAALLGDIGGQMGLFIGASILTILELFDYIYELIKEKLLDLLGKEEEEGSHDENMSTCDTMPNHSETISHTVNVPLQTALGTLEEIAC
HA-tagged ASIC2b (Q925H0-2, form named): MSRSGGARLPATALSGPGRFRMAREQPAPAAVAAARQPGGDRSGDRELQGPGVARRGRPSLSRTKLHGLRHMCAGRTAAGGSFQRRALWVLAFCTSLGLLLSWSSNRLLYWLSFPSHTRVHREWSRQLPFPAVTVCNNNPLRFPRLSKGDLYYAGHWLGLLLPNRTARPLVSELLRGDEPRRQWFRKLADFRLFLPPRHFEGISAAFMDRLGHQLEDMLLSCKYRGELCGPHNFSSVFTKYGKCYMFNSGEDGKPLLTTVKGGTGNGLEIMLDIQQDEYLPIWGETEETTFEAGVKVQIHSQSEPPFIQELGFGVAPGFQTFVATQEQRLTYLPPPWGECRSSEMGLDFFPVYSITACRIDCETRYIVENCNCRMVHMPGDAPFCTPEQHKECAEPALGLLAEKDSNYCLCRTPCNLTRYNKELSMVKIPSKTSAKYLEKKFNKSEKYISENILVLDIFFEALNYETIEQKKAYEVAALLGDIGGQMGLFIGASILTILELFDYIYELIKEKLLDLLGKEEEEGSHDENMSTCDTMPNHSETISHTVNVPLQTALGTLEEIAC

Q: For “ASIC2a fused at its C-terminus to a Venus fragment for BiFC (from UniProt Q925H0-1 1-512)”, which binding [1] is on record?
A: The binding was “binds”.

Q: And the binding [2]?
A: The binding was “binds”.

Q: For “ASIC2b fused at its C-terminus to a Venus fragment for BiFC (from UniProt Q925H0-2 1-563)”, which binding [1] is on record?
A: Its binding is “binds”.

Q: How did the binding [3] turn out when “HA-tagged ASIC2a (acid-sensing ion channel 2a) (from UniProt Q925H0-1 1-512)” was run?
A: The binding was “binds”.

Q: What about the binding [4] of the same substance?
A: The binding was “binds”.

Q: What does the source list for “HA-tagged ASIC2b (from UniProt Q925H0-2 1-563)”?
A: binding [5]: binds; binding [6]: binds; binding [7]: binds
